In PubChem BioAssay AID1508600 (Functional Genomics Laboratory (NCATS/FGL), 2020) one finds z-score data, which are given here for 68 sequences.

About 3,700 (7%) of roughly 53,000 sequences were called active.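 How the source made its calls: active means gene knockdowns whose robust z-score for IL-1 alpha signal is at least 2 or at most -2, so actives lie on both sides; inactive means the rest.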 The list shows a part of the results.

A short description of this assay: Components of the Cytosolic LPS Sensing Pathway: Gene Identification via Genome-wide siRNA Screen.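 Further: robust z of the log signal after scaling to non-targeting control siRNA wells of the plate.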 The settings on record: RAW264.7 macrophages, IL-1a HTRF, actives lie on both sides, screened at 100 nM (by protocol), cells primed 5 h with Pam3CSK4 first. The method, boiled down:
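Using IL-1a HTRF as read-out, the screen measured release from RAW264.7 cells after 48h siRNA knockdown (100 nM), 5 h Pam3CSK4 priming and 24 h cytosolic LipidA. Values were expressed relative to negative-control wells as robust z-scores.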
Take GGAGCUAAGUGAUUUUAGATT against Mtf1: the z-score was inactive: 0.403.
On to GGAUCUAUGAUCUCUCAGUTT against Gstt3, for which the z-score is inactive: 0.144.
As to GGCUUUAGCUAAAGAAGAUTT against Fam228b, the z-score was inactive: 0.087.
For CCUACCACAACAUGUAUCCTT against S100a11, the z-score was active: 2.25.
Turning to GCUAACUAUCCCUCCACUGTT against Retnla, the z-score was inactive: -0.204.
As to “GAAAAGAGCUGUAAGAAUGTT against 1700001G17Rik”, the z-score was inactive: 1.65.
Take GGGAAGUCAUUCACAUAUUTT against Rab39b: the z-score was inactive: -1.58.
Turning to GCUGAAGCAAGGUAGCGAUTT against Gbp5, the z-score was inactive: 0.277.
For GGAAAAAUCAAAAGUGUUGTT against Tamm41, the z-score was inactive: -1.55.
GGAUGUAAUGCGAAGUUUUTT against Vps52: the z-score was inactive: 0.0121.
For GGAAGUUAGCAUUUCUUCCTT against Xpnpep2, the z-score was inactive: 0.478.
With CGGUGUCCAACCUUACACUTT against Slc8a2 the figure was inactive: -0.352.
On to GGAAAUAUGUAUCAGCUACTT against Smyd5, for which the z-score is inactive: 0.514.
In the case of CCACUGAUGUGAGAUAUAATT against Zp2, the z-score is inactive: 0.0638.
In the case of GGAAGGACAACACUGCACCTT against Cd40, the z-score was active: 2.44.
For GGCGAUUUACAACUUUGGATT against H2aw, the z-score is inactive: 0.0941.
Consider GGAUGUCAAGCAAAUUUUUTT against Slc25a13, for which the z-score was inactive: 0.802.
As to GCAGGAGGAUUAGUAAAUUTT against Ier2, the z-score was inactive: 0.966.
Next, CGGUACAAACAGUGCAGAUTT against Eif4e3: inactive: 1.77; GGGACGACUCUUUCUUAUGTT against Olfr1264: inactive: 0.822.
Regarding GGCUUUUUAAAUGCUUCCCTT against Prr7, the z-score is inactive: 0.469.
Turning to GGAAGAUGACAAGUUGAUCTT against Spsb1, the z-score was inactive: -0.0523.
Take CGUGAACAAAAGAAGGGCUTT against Scel: the z-score is inactive: 0.494.
As to CGGAAAUUCUAGAAGCCAUTT against Kcnab2, the z-score is inactive: -0.288.
On to GCAGUUGGGACAAGCCUUUTT against Trak2, for which the z-score is inactive: 1.09.
Take GGAGAGUGACAUCAUCGUATT against Obsl1: the z-score is inactive: -0.0139.
With GGACAUACUAAUGAGGUCATT against Tbl1x the figure was inactive: 0.389; with GGAAGAAGGAACAUUUUGGTT against Fbxo25, inactive: -0.388.
Next, GCUCAACAGGCUCAACUACTT against Cndp2: inactive: 0.492; GGGAAAACAGCUCCUCACATT against Zfhx4: inactive: -1.05.
Next, GGUAUCAAAGCUGAAAUUGTT against Sptbn1: inactive: -1.27; GGAUGAGAGUCCACAGCAATT against Lpar3: inactive: -1.26.
Turning to GGGCUACAAACAUGGAACGTT against Dalrd3, the z-score was inactive: 0.319.
GGCUUGAGACAUUUUUCAATT against Tfdp2: the z-score is inactive: 0.876.
For GGCCUGGCACCUCAUAUUATT against Cnot1, the z-score was inactive: 1.38.
GCCCGAUAUUAUAACGGUGTT against Eomes: the z-score is active: 2.97.
Take GCUGAAUACGAUGAAGUCATT against BC051019: the z-score is inactive: -0.332.
In the case of GGUCUCAGGUUGUUUUGAUTT against Rasl10b, the z-score was inactive: -1.01.
Consider GCUUUCCUAGACAAUCUAUTT against Arhgap19, for which the z-score is inactive: 0.0654.
For the sequence GGAUGUAGAGAAAAUGAUCTT against Ces3b, the z-score was inactive: 0.763.
On to GGUCAUGAAUUACUAUUCCTT against Cyth2, for which the z-score was inactive: 1.02.
With AUUCUGAACACUCCUCGGATT against Spink8 the figure was inactive: -0.0439; with GGAUCCCAGGGAUCGAAUGTT against Osbpl9, inactive: 0.402; with GCUAUAUCCACCUUAUGUCTT against Pigq, inactive: -0.635.
With GACCCUAGCUCACUUUGGUTT against Gm9903, the z-score is inactive: 0.287.
Turning to GGAGAAACUGUAGUAAAUGTT against Dip2b, the z-score is inactive: 0.418.
Turning to AGUAUGGCAAAAGGGAACATT against Iigp1b, the z-score was inactive: 0.0389.
As for GGAGUUUGAUCAGAUCCUATT against Asf1b, the z-score is inactive: 1.74.
Consider GGAAGCAUGCGAGAUCUAUTT against Napa, for which the z-score was inactive: 1.31.
GGAAGCAGAUCAAAGACAUTT against Efhd2: the z-score was inactive: 0.393.
With GGUCCAGAAUGUGUCCCAGTT against Olfm2, the z-score is inactive: 0.257.
As for GGUGAAACCUGUCAUUCACTT against Dcdc2a, the z-score is inactive: -0.405.
Consider GGCGGUAACCACUUUCACGTT against Mycn, for which the z-score was inactive: -0.567.
On to GGGUGAUUUUUGUAAGAUATT against Mpp2, for which the z-score was inactive: -1.2.
Next, GGAAAAAAUCACUUUCAUCTT against Clasrp: inactive: -0.657; GGAGGUGCUUUAUGUCGAUTT against Kdm6a: inactive: 0.789; CCCAAGCAAUUACAGUACUTT against Olfr263: inactive: -0.543.
Next, GGAGAAGCUACUCAACAAUTT against Ndufs8: inactive: 0.319; CGUUGGAUCUUGAUAAAACTT against Lpar2: inactive: 0.179.
With GGCCUUGCGUCUCAACCUUTT against Tma16, the z-score was inactive: 0.32.
For GGACCUGAGUGUGUCUCAGTT against Serpina3m, the z-score was inactive: -0.477.
As for CCUCUCUCAACCAGUGAAATT against Grb7, the z-score was inactive: -1.6.
GGUGAAUGUAGUGUUAAAATT against Cyrib: the z-score was inactive: -0.204.
For the sequence GGAAGUGAAUGGACAGCCATT against Mpp2, the z-score is inactive: -1.22.
CCAAGAACUAUAUUUCUUCTT against Tars: the z-score was inactive: -0.0872.
GCCACUGGAGUAUAGCCAGTT against Pcnx3: the z-score was inactive: 0.019.
For the sequence GGAGAAAGAGACGGACAACTT against Fgfr1, the z-score is active: 2.8.
As to GGAAGGUUUCGCUUUGAAUTT against Tarm1, the z-score was inactive: -0.469.
